One molecule from US20230220410A1, “PLANTS TOLERANT TO BROAD RANGE OF PATHOGENS” (RAMOT AT TEL-AVIV UNIVERSITY LTD., priority 2020, published 2023) can be followed below.

SMILES strings stand for the structures.

For series [1], the system named is gene expression in I3CT1^8098 (M8098) roots. Description: RNA-Seq transcript profiling after I3C treatment, I3CT1^8098 (M8098). The series is classed as in vivo, Arabidopsis thaliana. The following applies: M8098, untreated vs 200 μM I3C, 2 hours.
The subject of series [2] is gene expression in Col-0 (WT) roots. Description: RNA-Seq transcript profiling after I3C treatment, WT. It counts as in vivo, Arabidopsis thaliana.
Where [3] appears, read: untreated vs 200 μM I3C, 2 hours.
Where [4] appears, read: untreated vs 400 μM I3C, 2 hours.

As for `OCc1c[nH]c2ccccc12` [I3C, Indole 3-carbinol], in series [1], the “number of genes with modified expression, Down, NT/200” value stood at 1910 and the “number of genes with modified expression, Up, NT/200” value is given as 3222. In addition, in series [2] (200 or 400 μM I3C, GO:0022622), the “number of genes involved in root development down-regulated” value came to 66. Also, in series [2] (200 vs 400 μM I3C), the “number of genes with modified expression, Down, 200/400” value is given as 31 and the “number of genes with modified expression, Up, 200/400” value is recorded as 84. In series [2] (setting [3]), the “number of genes with modified expression, Down, NT/200” value stood at 2904 and the “number of genes with modified expression, Up, NT/200” value was found to be 3405. In addition, in series [2] (setting [4]), the “number of genes with modified expression, Down, NT/400” value is 3697 and the “number of genes with modified expression, Up, NT/400” value turned out to be 4134.
